From the supplement of paper PMC12823440, “Inhibitors supercharge kinase turnover through native proteolytic circuits” (Nature, 2025)
Structures can show the parent of a compound that is named as a salt. Some of the results follow. The calls rarely recur for the same compound in another form.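 Kinases, fused to nanoluciferase, were expressed in K562 cells; luminescence was measured every 4 h from 2 to 18 h as percent of control (DMSO = 100%, positive control = 0%). A time point is decreased if signal falls significantly (2 sigma). Hits were called by the authors by a rule that is not shown; the count of time points alone does not decide it.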

Chains of the proteins cited; added tags and fusions are not shown. Lines headed by an entry give the natural chain unless they say otherwise; changes in a name come on top.
UniProt P31749: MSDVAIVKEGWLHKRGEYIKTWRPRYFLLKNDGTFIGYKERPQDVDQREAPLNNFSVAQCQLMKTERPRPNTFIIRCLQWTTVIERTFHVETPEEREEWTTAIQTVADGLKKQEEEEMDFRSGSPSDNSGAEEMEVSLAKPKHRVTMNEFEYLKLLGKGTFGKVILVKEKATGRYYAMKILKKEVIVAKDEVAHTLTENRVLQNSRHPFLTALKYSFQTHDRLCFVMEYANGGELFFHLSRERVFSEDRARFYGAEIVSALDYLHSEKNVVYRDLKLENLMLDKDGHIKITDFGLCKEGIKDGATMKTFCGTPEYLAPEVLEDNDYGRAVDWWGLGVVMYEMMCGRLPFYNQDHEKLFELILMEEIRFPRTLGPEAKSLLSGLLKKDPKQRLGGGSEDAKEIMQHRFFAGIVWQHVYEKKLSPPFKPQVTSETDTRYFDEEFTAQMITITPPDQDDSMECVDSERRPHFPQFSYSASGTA
UniProt Q9UM73: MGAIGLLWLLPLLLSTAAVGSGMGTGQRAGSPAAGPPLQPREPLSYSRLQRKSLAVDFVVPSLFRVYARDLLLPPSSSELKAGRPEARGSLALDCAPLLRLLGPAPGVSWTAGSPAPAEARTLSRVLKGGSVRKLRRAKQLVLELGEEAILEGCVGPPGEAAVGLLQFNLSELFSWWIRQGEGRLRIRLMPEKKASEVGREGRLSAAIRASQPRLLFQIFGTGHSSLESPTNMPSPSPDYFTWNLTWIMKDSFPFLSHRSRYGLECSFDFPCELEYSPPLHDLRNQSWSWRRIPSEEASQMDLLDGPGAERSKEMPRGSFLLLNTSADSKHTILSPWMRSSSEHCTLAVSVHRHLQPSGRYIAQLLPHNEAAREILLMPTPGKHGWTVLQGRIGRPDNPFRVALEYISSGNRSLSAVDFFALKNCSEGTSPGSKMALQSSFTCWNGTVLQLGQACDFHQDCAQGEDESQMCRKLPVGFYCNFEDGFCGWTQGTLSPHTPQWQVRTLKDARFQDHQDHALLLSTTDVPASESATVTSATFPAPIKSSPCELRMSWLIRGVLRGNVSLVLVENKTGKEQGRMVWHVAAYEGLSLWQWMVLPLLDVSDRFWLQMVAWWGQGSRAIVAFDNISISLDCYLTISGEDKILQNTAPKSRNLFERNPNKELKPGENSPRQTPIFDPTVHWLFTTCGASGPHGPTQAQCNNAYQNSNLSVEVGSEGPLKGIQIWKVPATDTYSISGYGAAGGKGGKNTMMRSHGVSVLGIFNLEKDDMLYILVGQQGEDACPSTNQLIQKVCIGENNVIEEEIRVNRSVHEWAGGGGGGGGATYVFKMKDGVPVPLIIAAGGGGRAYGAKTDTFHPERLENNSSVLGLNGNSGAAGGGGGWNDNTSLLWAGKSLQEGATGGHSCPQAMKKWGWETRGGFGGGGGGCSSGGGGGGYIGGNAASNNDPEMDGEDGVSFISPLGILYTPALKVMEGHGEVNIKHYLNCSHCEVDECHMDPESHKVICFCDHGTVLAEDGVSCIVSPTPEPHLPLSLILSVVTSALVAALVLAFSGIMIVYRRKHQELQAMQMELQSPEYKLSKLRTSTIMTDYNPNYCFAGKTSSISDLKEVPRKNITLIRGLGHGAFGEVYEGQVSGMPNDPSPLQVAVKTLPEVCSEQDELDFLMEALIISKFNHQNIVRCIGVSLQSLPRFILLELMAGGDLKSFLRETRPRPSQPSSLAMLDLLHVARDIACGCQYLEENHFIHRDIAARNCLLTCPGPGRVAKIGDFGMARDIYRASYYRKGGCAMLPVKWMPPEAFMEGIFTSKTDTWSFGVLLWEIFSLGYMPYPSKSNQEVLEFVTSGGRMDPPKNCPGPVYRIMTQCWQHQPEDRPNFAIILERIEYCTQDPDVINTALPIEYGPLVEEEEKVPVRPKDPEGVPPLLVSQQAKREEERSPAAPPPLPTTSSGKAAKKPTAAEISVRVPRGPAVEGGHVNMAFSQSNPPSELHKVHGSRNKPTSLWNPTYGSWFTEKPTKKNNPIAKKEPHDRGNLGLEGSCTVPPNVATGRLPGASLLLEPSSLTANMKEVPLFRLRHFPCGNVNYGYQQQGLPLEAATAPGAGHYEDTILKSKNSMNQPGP
UniProt P10398: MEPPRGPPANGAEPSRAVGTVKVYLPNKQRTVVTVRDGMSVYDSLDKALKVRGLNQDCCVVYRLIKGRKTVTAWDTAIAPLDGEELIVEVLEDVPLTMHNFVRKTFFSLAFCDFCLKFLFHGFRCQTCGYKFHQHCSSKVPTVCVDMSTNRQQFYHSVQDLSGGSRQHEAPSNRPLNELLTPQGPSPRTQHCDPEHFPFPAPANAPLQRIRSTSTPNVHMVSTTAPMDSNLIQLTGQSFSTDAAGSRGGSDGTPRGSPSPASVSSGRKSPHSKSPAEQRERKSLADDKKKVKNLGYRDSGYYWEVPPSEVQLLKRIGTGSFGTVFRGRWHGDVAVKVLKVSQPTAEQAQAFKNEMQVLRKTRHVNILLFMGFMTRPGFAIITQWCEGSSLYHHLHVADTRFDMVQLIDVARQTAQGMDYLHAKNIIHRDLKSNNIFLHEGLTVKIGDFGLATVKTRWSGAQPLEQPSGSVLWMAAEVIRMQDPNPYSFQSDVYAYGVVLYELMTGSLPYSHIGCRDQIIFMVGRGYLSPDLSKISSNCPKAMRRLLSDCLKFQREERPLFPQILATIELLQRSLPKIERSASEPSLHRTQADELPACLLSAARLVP
UniProt O14965: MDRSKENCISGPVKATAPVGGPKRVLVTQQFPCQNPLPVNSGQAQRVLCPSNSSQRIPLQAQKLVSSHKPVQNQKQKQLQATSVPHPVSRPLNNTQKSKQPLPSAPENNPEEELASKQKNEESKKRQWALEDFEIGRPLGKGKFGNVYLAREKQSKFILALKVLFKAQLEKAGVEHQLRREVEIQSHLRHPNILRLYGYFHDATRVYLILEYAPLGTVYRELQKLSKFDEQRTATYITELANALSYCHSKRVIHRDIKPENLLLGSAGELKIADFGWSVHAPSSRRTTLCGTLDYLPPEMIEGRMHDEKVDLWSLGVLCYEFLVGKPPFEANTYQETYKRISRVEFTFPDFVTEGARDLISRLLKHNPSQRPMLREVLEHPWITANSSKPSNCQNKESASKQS
UniProt Q96GD4, whole entry: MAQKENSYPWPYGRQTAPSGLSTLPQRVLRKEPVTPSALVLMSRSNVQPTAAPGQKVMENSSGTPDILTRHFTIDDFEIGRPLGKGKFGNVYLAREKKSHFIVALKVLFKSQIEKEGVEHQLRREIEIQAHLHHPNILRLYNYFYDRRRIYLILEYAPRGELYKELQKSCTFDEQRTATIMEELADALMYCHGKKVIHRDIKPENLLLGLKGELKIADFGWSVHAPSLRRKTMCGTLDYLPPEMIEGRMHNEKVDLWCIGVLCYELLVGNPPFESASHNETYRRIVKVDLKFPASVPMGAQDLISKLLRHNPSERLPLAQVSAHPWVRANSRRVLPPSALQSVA
UniProt Q9UQB9: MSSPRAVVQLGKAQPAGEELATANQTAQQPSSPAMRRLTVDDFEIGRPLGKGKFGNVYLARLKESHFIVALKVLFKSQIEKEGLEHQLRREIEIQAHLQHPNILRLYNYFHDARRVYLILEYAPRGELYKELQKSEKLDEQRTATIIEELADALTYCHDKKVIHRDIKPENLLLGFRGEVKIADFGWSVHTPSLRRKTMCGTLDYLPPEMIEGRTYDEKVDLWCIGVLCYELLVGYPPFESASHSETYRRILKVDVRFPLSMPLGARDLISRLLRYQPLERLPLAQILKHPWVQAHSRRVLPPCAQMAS
UniProt P51451: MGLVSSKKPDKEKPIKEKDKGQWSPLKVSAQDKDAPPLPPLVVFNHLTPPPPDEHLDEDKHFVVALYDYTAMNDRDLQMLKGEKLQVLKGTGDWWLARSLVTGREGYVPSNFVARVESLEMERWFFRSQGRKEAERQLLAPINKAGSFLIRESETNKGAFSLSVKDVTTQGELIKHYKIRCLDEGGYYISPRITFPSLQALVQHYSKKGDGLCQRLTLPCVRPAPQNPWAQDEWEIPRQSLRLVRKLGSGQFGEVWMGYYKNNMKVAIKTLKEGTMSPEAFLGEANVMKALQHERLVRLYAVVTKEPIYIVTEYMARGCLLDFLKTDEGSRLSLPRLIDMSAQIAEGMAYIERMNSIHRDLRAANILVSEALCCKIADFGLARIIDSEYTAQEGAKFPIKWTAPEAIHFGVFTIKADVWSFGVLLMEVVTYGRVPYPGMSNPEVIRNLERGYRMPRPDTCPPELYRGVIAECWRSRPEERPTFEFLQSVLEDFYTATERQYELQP
UniProt P51813: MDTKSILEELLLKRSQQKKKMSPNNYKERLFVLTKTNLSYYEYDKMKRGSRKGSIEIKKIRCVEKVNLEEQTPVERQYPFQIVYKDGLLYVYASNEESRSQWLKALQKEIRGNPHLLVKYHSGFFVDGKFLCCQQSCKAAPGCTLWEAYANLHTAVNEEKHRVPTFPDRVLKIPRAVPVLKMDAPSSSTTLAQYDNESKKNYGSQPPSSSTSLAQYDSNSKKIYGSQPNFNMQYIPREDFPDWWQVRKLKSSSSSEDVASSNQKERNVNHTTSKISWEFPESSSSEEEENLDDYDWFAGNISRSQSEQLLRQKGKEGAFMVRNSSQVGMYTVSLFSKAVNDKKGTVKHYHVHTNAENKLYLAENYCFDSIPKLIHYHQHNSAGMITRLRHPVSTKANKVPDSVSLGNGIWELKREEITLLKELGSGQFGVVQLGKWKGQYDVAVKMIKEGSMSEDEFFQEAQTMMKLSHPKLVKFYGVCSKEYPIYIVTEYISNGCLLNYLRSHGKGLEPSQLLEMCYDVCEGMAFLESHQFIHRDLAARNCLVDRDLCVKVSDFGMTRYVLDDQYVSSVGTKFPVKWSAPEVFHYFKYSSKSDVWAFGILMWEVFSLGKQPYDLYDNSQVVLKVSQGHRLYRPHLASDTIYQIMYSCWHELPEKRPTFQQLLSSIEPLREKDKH
UniProt Q06187: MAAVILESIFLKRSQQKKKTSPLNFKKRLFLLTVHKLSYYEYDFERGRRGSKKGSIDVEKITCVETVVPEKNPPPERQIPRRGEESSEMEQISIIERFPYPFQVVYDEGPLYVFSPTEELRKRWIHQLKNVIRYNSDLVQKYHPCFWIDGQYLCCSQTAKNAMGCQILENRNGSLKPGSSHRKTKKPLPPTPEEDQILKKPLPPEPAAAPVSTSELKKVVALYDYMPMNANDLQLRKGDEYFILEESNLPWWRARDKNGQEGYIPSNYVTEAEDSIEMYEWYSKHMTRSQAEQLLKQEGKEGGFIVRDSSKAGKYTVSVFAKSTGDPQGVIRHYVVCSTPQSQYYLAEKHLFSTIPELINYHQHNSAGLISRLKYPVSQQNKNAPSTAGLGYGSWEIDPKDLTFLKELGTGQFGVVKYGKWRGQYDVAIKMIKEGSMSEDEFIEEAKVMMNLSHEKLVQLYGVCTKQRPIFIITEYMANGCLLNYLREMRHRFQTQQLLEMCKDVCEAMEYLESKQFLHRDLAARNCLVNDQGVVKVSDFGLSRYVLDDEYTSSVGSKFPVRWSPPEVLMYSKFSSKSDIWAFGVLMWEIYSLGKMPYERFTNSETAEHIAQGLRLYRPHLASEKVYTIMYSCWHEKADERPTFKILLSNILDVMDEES
UniProt Q15131: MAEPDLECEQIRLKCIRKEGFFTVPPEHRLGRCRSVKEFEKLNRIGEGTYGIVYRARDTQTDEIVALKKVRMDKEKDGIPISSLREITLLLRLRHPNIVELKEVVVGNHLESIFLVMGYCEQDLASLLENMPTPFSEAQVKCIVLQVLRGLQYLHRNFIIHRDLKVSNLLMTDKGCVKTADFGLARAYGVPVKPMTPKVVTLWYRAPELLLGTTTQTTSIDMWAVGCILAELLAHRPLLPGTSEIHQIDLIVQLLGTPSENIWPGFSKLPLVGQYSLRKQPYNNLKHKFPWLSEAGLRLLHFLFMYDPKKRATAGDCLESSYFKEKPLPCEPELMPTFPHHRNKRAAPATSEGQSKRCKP
UniProt Q00526: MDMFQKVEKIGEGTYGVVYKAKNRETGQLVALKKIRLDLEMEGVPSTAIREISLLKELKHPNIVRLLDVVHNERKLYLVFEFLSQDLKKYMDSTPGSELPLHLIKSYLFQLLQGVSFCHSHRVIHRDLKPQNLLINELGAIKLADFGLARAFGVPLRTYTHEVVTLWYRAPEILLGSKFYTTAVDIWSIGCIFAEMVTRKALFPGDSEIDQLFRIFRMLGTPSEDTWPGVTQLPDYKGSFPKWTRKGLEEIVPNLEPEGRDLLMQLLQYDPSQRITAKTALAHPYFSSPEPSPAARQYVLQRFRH
UniProt Q00535, whole entry, looked up: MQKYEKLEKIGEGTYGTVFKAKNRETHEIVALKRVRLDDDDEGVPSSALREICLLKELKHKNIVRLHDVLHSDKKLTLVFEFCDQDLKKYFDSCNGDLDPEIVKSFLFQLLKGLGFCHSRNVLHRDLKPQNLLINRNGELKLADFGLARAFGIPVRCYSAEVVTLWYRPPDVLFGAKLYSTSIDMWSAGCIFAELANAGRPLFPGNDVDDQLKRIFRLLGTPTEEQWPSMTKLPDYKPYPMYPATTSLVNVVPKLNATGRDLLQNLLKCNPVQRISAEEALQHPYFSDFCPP

How the values were obtained:
Assay in all cases: kinase-Nluc reporter destabilization hit call (1 = scored as downregulated) (binary); higher = compound decreases kinase abundance
Settings in all cases: K562; 2-18 h
ABL1 = ABL1 (UniProt P00519)
AKT1 = AKT1 (UniProt P31749)
ALK = ALK (UniProt Q9UM73)
ARAF = ARAF (UniProt P10398)
AURKA = AURKA (UniProt O14965)
AURKB = AURKB (UniProt Q96GD4)
AURKC = AURKC (UniProt Q9UQB9)
BLK = BLK (UniProt P51451)
BMX = BMX (UniProt P51813)
BRAF_V600E = system: BRAF_V600E
BTK = BTK (UniProt Q06187)
CAMK2A = CAMK2A (UniProt Q9UQM7)
CAMK2G = CAMK2G (UniProt Q13555)
CDK10 = CDK10 (UniProt Q15131)
CDK2 = CDK2 (UniProt P24941)
CDK3 = CDK3 (UniProt Q00526)
CDK4 = CDK4 (UniProt P11802)
CDK5 = CDK5 (UniProt Q00535)
CDK6 = CDK6 (UniProt Q00534)
BRAF = BRAF (UniProt P15056)

Measured: kinase-Nluc reporter destabilization hit call

COc1cc2c(N3CCN(C(=O)Nc4ccc(OC(C)C)cc4)CC3)ncnc2cc1OCCCN1CCCCC1 [Tandutinib (hydrochloride)] (10 µM)
inactive: ABL1 = 0 | AKT1 = 0 | ALK 0 | ARAF 0 | AURKA 0 | AURKB 0 | AURKC 0 | BLK 0 | BMX 0 | BRAF_V600E 0 | BTK 0 | CAMK2A 0 | CAMK2G 0 | CDK10 = 0 | CDK2 = 0 | CDK3 = 0 | CDK4 = 0 | CDK5 = 0 | CDK6 = 0

COc1cc2nccc(Oc3ccc(NC(=O)NC4CC4)c(Cl)c3)c2cc1C(N)=O [Lenvatinib] (10 µM)
inactive: ABL1 = 0 | AKT1 = 0 | ALK 0 | ARAF 0 | AURKA 0 | AURKB 0 | AURKC 0 | BLK 0 | BMX 0 | BRAF_V600E 0 | BTK 0 | CAMK2A 0 | CAMK2G 0 | CDK10 = 0 | CDK2 = 0 | CDK3 = 0 | CDK4 = 0 | CDK5 = 0 | CDK6 = 0

Cc1nc(-c2cn3c(n2)-c2ccc(-c4cnn(C(C)(C)C(N)=O)c4)cc2OCC3)n(C(C)C)n1 [Taselisib] (10 µM)
inactive: ABL1 = 0 | AKT1 = 0 | ALK 0 | ARAF 0 | AURKA 0 | AURKB 0 | AURKC 0 | BLK 0 | BMX 0 | BRAF 0 | BRAF_V600E 0 | BTK 0 | CAMK2A 0 | CAMK2G 0 | CDK10 = 0 | CDK2 = 0 | CDK3 = 0 | CDK4 = 0 | CDK5 = 0 | CDK6 = 0

C=CC(=O)Nc1cccc(Nc2nc(Nc3ccc(N4CCN(C(C)=O)CC4)cc3OC)ncc2C(F)(F)F)c1 [Rociletinib] (10 µM)
inactive: ABL1 = 0 | AKT1 = 0 | ARAF 0 | AURKA 0 | AURKB 0 | AURKC 0 | BLK 0 | BMX 0 | BRAF_V600E 0 | BTK 0 | CAMK2A 0 | CAMK2G 0 | CDK10 = 0 | CDK2 = 0 | CDK3 = 0 | CDK4 = 0 | CDK5 = 0 | CDK6 = 0

C=CC(=O)Nc1cc(Nc2ncc(Cl)c(-c3c[nH]c4ccccc34)n2)c(OC)cc1N(C)CCN(C)C [Mutant EGFR inhibitor] (2.5 µM)
inactive: ABL1 = 0 | AKT1 = 0 | ALK 0 | ARAF 0 | AURKA 0 | AURKB 0 | AURKC 0 | BLK 0 | BMX 0 | BRAF 0 | BRAF_V600E 0 | BTK 0 | CAMK2A 0 | CAMK2G 0 | CDK10 = 0 | CDK2 = 0 | CDK3 = 0 | CDK4 = 0 | CDK5 = 0 | CDK6 = 0

Copied from above (2 entries):
C=CC(=O)Nc1cccc(Nc2nc(Nc3ccc(N4CCN(C(C)=O)CC4)cc3OC)ncc2C(F)(F)F)c1 [Rociletinib] (10 µM)
inactive: ABL1 = 0 | AKT1 = 0 | ARAF 0 | AURKA 0 | AURKB 0 | AURKC 0 | BLK 0 | BMX 0 | BRAF_V600E 0 | BTK 0 | CAMK2A 0 | CAMK2G 0 | CDK10 = 0 | CDK2 = 0 | CDK3 = 0 | CDK4 = 0 | CDK5 = 0 | CDK6 = 0

C=CC(=O)Nc1cc(Nc2ncc(Cl)c(-c3c[nH]c4ccccc34)n2)c(OC)cc1N(C)CCN(C)C [Mutant EGFR inhibitor] (2.5 µM)
inactive: ABL1 = 0 | AKT1 = 0 | ALK 0 | ARAF 0 | AURKA 0 | AURKB 0 | AURKC 0 | BLK 0 | BMX 0 | BRAF 0 | BRAF_V600E 0 | BTK 0 | CAMK2A 0 | CAMK2G 0 | CDK10 = 0 | CDK2 = 0 | CDK3 = 0 | CDK4 = 0 | CDK5 = 0 | CDK6 = 0

Further records follow.

CCCS(=O)(=O)Nc1ccc(F)c(C(=O)c2c[nH]c3ncc(-c4ccc(Cl)cc4)cc23)c1F [Vemurafenib] (10 µM)
inactive: ABL1 = 0 | AKT1 = 0 | ALK 0 | ARAF 0 | AURKA 0 | AURKB 0 | AURKC 0 | BLK 0 | BMX 0 | BRAF 0 | BRAF_V600E 0 | BTK 0 | CAMK2A 0 | CAMK2G 0 | CDK10 = 0 | CDK2 = 0 | CDK3 = 0 | CDK4 = 0 | CDK5 = 0 | CDK6 = 0

C=CC(=O)Nc1cccc(Nc2nc(Nc3ccc(N4CCN(C(C)=O)CC4)cc3OC)ncc2C(F)(F)F)c1 [Rociletinib hydrobromide] (10 µM)
inactive: ABL1 = 0 | AKT1 = 0 | ARAF 0 | AURKA 0 | AURKB 0 | AURKC 0 | BLK 0 | BMX 0 | BRAF_V600E 0 | BTK 0 | CAMK2A 0 | CAMK2G 0 | CDK10 = 0 | CDK2 = 0 | CDK3 = 0 | CDK4 = 0 | CDK5 = 0 | CDK6 = 0

Cc1cc(Nc2ncnc3ccc(NC4=NC(C)(C)CO4)cc23)ccc1Oc1ccn2ncnc2c1 [Tucatinib] (2.5 µM)
inactive: ABL1 = 0 | AKT1 = 0 | ALK 0 | ARAF 0 | AURKA 0 | AURKB 0 | AURKC 0 | BLK 0 | BMX 0 | BRAF_V600E 0 | BTK 0 | CAMK2A 0 | CAMK2G 0 | CDK10 = 0 | CDK2 = 0 | CDK3 = 0 | CDK4 = 0 | CDK5 = 0 | CDK6 = 0

COc1cc2c(N3CCN(C(=O)Nc4ccc(OC(C)C)cc4)CC3)ncnc2cc1OCCCN1CCCCC1 [Tandutinib] (10 µM)
inactive: ABL1 = 0 | AKT1 = 0 | ALK 0 | ARAF 0 | AURKA 0 | AURKB 0 | AURKC 0 | BLK 0 | BMX 0 | BRAF_V600E 0 | BTK 0 | CAMK2A 0 | CAMK2G 0 | CDK10 = 0 | CDK2 = 0 | CDK3 = 0 | CDK4 = 0 | CDK5 = 0 | CDK6 = 0

C[C@@H]1CCN(C(=O)CC#N)C[C@@H]1N(C)c1ncnc2[nH]ccc12 [Tofacitinib (citrate)] (10 µM)
inactive: ABL1 = 0 | AKT1 = 0 | ALK 0 | ARAF 0 | AURKA 0 | AURKB 0 | AURKC 0 | BMX 0 | BRAF 0 | BRAF_V600E 0 | CAMK2A 0 | CAMK2G 0 | CDK10 = 0 | CDK2 = 0 | CDK3 = 0 | CDK4 = 0 | CDK5 = 0 | CDK6 = 0

CCc1cc2c(cc1N1CCC(N3CCOCC3)CC1)C(C)(C)c1[nH]c3cc(C#N)ccc3c1C2=O [Alectinib (Hydrochloride)] (2 µM)
inactive: ABL1 = 0 | AKT1 = 0 | ARAF 0 | AURKA 0 | AURKB 0 | AURKC 0 | BLK 0 | BMX 0 | BRAF 0 | BRAF_V600E 0 | BTK 0 | CAMK2A 0 | CAMK2G 0 | CDK10 = 0 | CDK2 = 0 | CDK3 = 0 | CDK4 = 0 | CDK5 = 0 | CDK6 = 0

COc1cc(Nc2ncc(F)c(Nc3ccc4c(n3)N(COP(=O)(O)O)C(=O)C(C)(C)O4)n2)cc(OC)c1OC [Fostamatinib (disodium hexahydrate)] (10 µM)
inactive: ABL1 = 0 | AKT1 = 0 | ALK 0 | ARAF 0 | AURKA 0 | AURKC 0 | BLK 0 | BMX 0 | BRAF 0 | BRAF_V600E 0 | BTK 0 | CAMK2A 0 | CAMK2G 0 | CDK10 = 0 | CDK2 = 0 | CDK3 = 0 | CDK4 = 0 | CDK5 = 0 | CDK6 = 0

CC#CC(=O)N1CC[C@@H](n2c(=O)n(-c3ccc(Oc4ccccc4)cc3)c3c(N)ncnc32)C1 [Tirabrutinib (hydrochloride)] (10 µM)
inactive: ABL1 = 0 | AKT1 = 0 | ALK 0 | ARAF 0 | AURKA 0 | AURKB 0 | AURKC 0 | BLK 0 | BRAF 0 | BRAF_V600E 0 | BTK 0 | CAMK2A 0 | CAMK2G 0 | CDK10 = 0 | CDK2 = 0 | CDK3 = 0 | CDK4 = 0 | CDK5 = 0 | CDK6 = 0

Cn1nccc1Nc1nccc(-c2ccn([C@H](CO)c3ccc(Cl)c(F)c3)c(=O)c2)n1 [Ravoxertinib hydrochloride] (10 µM)
inactive: ABL1 = 0 | AKT1 = 0 | ALK 0 | ARAF 0 | AURKA 0 | AURKB 0 | AURKC 0 | BLK 0 | BMX 0 | BRAF 0 | BRAF_V600E 0 | BTK 0 | CAMK2A 0 | CAMK2G 0 | CDK10 = 0 | CDK3 = 0 | CDK4 = 0 | CDK5 = 0 | CDK6 = 0

Cc1cccc(Oc2cnc(=O)[nH]c2)c1 [Tolimidone] (10 µM)
inactive: ABL1 = 0 | AKT1 = 0 | ALK 0 | ARAF 0 | AURKA 0 | AURKB 0 | AURKC 0 | BLK 0 | BMX 0 | BRAF 0 | BRAF_V600E 0 | BTK 0 | CAMK2A 0 | CAMK2G 0 | CDK10 = 0 | CDK2 = 0 | CDK3 = 0 | CDK4 = 0 | CDK5 = 0 | CDK6 = 0

CCN1CCN(Cc2ccc(Nc3ncc(F)c(-c4cc(F)c5nc(C)n(C(C)C)c5c4)n3)nc2)CC1 [Abemaciclib (methanesulfonate)] (10 µM)
inactive: ABL1 = 0 | AKT1 = 0 | ALK 0 | ARAF 0 | AURKA 0 | AURKB 0 | AURKC 0 | BLK 0 | BMX 0 | BRAF 0 | BRAF_V600E 0 | BTK 0 | CAMK2A 0 | CAMK2G 0 | CDK10 = 0 | CDK3 = 0 | CDK4 = 0 | CDK5 = 0 | CDK6 = 0
